Test results from patent publication US9783859B2, “Method of screening and quantifying various enzymatic activities using artificial genetic circuits” (KOREA RESEARCH INSTITUTE OF BIOSCIENCE AND BIOTECHNOLOGY, priority 2009, dated 2017).
Some results were stated once for a whole list of compounds, not compound by compound.

System: genetic circuit pGESS-EGFP (III), mutant dmpR (E135K)
Assay type: cell-based, E. coli
Settings: M9 (acetate)
Description: The colony introduced with the pGESS-EGFP (II) or pGESS-EGFP (III) genetic circuit was inoculated into LB medium and was cultured with shaking at 37° C. Next day, the culture was inoculated into LB medium to a concentration of 1% (v/v) and was cultured with shaking at 37° C. When the cell growth (OD600/ml) reached about 2.5, the cultured cells were recovered and subjected to activation of the genetic circuit. For activation of the genetic circuit, the recovered bacterial cells were washed once with M9 medium, after which they were suspended in M9 (acetate) media containing various concentrations of phenol and were cultured with shaking. Each medium was supplemented with 50 μg/ml of ampicillin as a selection marker. The bacterial cell growth was predicted by measuring absorbance (OD600) using a UV/VIS spectrometer (Ultrospec 3000, Pharmacia Biotech, Sweden), and the fluorescence intensity was measured using a fluorescence plate reader (Multi-label reader, PerkinElmer, USA).
Next, the measurement of sensitivities to 2-nitrophenol and 4-nitrophenol was performed. The measurement was performed in the same manner as above, and various concentrations of 2-nitrophenol and 4-nitrophenol in addition to phenol were added and allowed to react.

SMILES	concentration range which could be quantitatively sensed [µM]
O=[N+]([O-])c1ccccc1O [o-nitrophenol]	0.1 to 10
O=[N+]([O-])c1ccc(O)cc1 [p-nitrophenol]	0.1 to 10
